Reference: PubChem BioAssay AID504834 (National Center for Advancing Translational Sciences (NCATS), 2011)
Out of some 320,000 compounds screened, about 22,000 (6.9%) were called active. The shares of active, inactive and inconclusive entries below differ from those in the screen. Calls follow the shape of the dose curve; as a rule, active = well fitted inhibition curve with a large enough effect; inconclusive = small, poorly fitted or top-dose-only effect, or another doubt; inactive = no such curve, though single readings can be large or run the other way. Where the call is inconclusive, the potency comes from a doubtful curve fit.

test: Primary qHTS for delayed death inhibitors of the malarial parasite plastid, 96 hour incubation; settings: P. falciparum luciferase reporter growth; series mostly up to 28.7 µM
Procedure, shortened: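 P. falciparum expressing integrated firefly luciferase, in erythrocytes at 2% hematocrit, 0.05% parasitemia, incubated with compounds 96 h at 37 C, 5% CO2. Growth inhibition read as loss of luminescence; two-generation exposure targets delayed-death apicoplast inhibitors.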
% is scaled to controls: 0 for no effect and ±100 for the full control effect; potency is read from the fitted curve at half-maximal effect.

Q: Which Potency does the source give for `Cc1ccc(CN(C(=O)c2csnn2)C(C(=O)NC2CCCC2)c2cccnc2)cc1` (stereo unspecified) here?
A: inactive

Q: For `O=C(NNS(=O)(=O)c1ccc([N+](=O)[O-])cc1)C(=O)Nc1cccc(C(=O)O)c1`, which Potency is on record?
A: inactive

Q: Which Potency does the source give for `Cc1ccc(NC(=O)COC(=O)c2ccc(C)c(S(=O)(=O)N3CCOCC3)c2)cc1` here?
A: inactive

Q: With `COc1ccc(Cn2c(N)c(C(=O)NCc3ccco3)c3nc4ccccc4nc32)cc1` as the compound, how does the Potency read?
A: inconclusive: 0.0928 µM [inhibitor, full curve]

Q: With `CCOc1ccc(N(CC(=O)NCc2ccc(Cl)cc2)S(=O)(=O)c2c(C)noc2C)cc1` as the compound, how does the Potency read?
A: inactive

Q: With `O=C1CN(S(=O)(=O)c2ccc([N+](=O)[O-])cc2)CC(=O)N1` as the compound, how does the Potency read?
A: active: 11.7 µM

Q: Which Potency does the source give for `Cc1ccc(-n2c(O)c(/C=N/Nc3ccc(S(=O)(=O)N4CCOCC4)cc3[N+](=O)[O-])c3ccccc3c2=O)c(C)c1` here?
A: active: 2.94 µM

Q: With `Cc1ccc(S(=O)(=O)N[C@H](C(=O)N2CCC3(O)CCCCC3C2)c2ccccc2)cc1` (stereo partly specified) as the compound, how does the Potency read?
A: inconclusive: 11.7 µM [inhibitor, single point]

Q: For `O=C(Cn1cc([N+](=O)[O-])cn1)NCc1ccco1`, which Potency is on record?
A: inconclusive: 1.31 µM [inhibitor, partial curve, poor fit]

Q: For `C#CCOCCOCCOCCNc1nc(N2CCOCC2)nc(N2CCN(C(=O)[C@H](Cc3cc4ccccc4[nH]3)n3cc([C@@H](N)C(C)CC)nn3)CC2)n1` (stereo partly specified), which Potency is on record?
A: active: 2.94 µM

Q: With `CC(=O)c1ccc(S(=O)(=O)NCCC(=O)N2CCN(c3ccccn3)CC2)cc1` as the compound, how does the Potency read?
A: inconclusive: 18.5 µM [inhibitor, single point]

Q: Which Potency does the source give for `CC1CCCC(NC(=O)CCCn2c(=S)[nH]c3ccccc3c2=O)C1C` (stereo unspecified) here?
A: inconclusive: 9.28 µM [inhibitor, partial curve, poor fit]

Q: With `CC(C)CNC(=O)c1c2c(nc3ccccc13)-c1ccccc1CC2` as the compound, how does the Potency read?
A: inactive

Q: With `O=C(c1cccc(F)c1)N1CCN(C(=O)c2cc3ncc(Br)cn3n2)CC1` as the compound, how does the Potency read?
A: inactive

Q: With `Cc1ccc(CN(Cc2ccco2)S(=O)(=O)c2ccc(S(=O)(=O)NCC3CCCO3)cc2)cc1` (stereo unspecified) as the compound, how does the Potency read?
A: inactive

Q: With `O=C(CCn1cccn1)Nc1ccc(-c2ccno2)cc1` as the compound, how does the Potency read?
A: inactive

Q: For `O=C(NCCCO)C(=O)NCc1ccncc1`, which Potency is on record?
A: inconclusive: 18.5 µM [inhibitor, single point]

Q: Which Potency does the source give for `Cc1cccc(NC(=S)N2CCC(NC(=O)C3CCCCC3)CC2)c1` here?
A: inactive

Q: With `COc1ccc(CNC(=O)COC(=O)c2nc3nc(C)cc(C)n3n2)cc1` as the compound, how does the Potency read?
A: inconclusive: 18.5 µM [inhibitor, single point]

Q: For `CCC(=O)OC1C(N(C)C)CC(C)O[C@H]1O[C@H]1[C@H](C)[C@@H](O[C@H]2CC(OC)[C@@H](O)C(C)O2)[C@H](C)C(=O)O[C@@H](CC)[C@](C)(O)[C@@H](O)[C@H](C)C(=O)[C@@H](C)C[C@]1(C)O` (stereo partly specified), which Potency is on record?
A: active: 7.57 µM

Q: With `N/C(=N/O)C(c1ccccc1)c1ccccc1` as the compound, how does the Potency read?
A: inconclusive: 4.15 µM [inhibitor, single point]

Q: For `Cc1ccc(Sc2cc(Cl)nc(N)n2)cc1`, which Potency is on record?
A: inactive

Q: For `Cc1oc2cc3oc(=O)c(CCC(=O)NCCCN4CCOCC4)c(C)c3cc2c1C`, which Potency is on record?
A: inconclusive: 18.5 µM [inhibitor, single point]

Q: With `O=C(O)CCCC(=O)Nc1nc(-c2ccc(F)cc2)cs1` as the compound, how does the Potency read?
A: inconclusive: 0.522 µM [inhibitor, full curve, poor fit]

Q: With `O=C(NNC(=O)C1CCCN(c2ncccn2)C1)c1ccc(F)cc1` (stereo unspecified) as the compound, how does the Potency read?
A: inactive

Q: For `Cc1nc2ccccc2c(=O)n1-c1cccc(C(F)(F)F)c1`, which Potency is on record?
A: inconclusive: 13.1 µM [inhibitor, partial curve, poor fit]

Q: With `O=C(NCCc1ccccc1)C1CCN(C(=O)N2CCOc3ccccc32)CC1` as the compound, how does the Potency read?
A: inconclusive: 14.7 µM [inhibitor, single point]

Q: For `CCN1C(=O)[C@H]2[C@@H](c3ccc(-c4ccccc4)cc3)N3CCC[C@@]3(C(=O)OC)[C@H]2C1=O`, which Potency is on record?
A: active: 13.1 µM

Q: For `CN1C(C(=O)NCc2ccc(OC(F)(F)F)cc2)CC2Cn3c(nc4cc5ccccc5cc43)C21` (stereo unspecified), which Potency is on record?
A: inactive

Q: Which Potency does the source give for `Cc1ccc2nc(N/C(N)=N/S(=O)(=O)c3ccc([N+](=O)[O-])cc3)nc(C)c2c1` here?
A: inactive

Q: Which Potency does the source give for `Cc1cccc2[nH]c(CN(C)C(=O)C3CCC(=O)N(CCc4ccccc4)C3)nc12` (stereo unspecified) here?
A: inconclusive: 5.22 µM [inhibitor, partial curve]

Q: For `CCCCOC(=O)c1ccccc1C(=O)OCc1ccccc1`, which Potency is on record?
A: inactive

Q: For `Cc1ccc(C)c(NC(=O)C2CCC(C)(C(=O)O)C2(C)C)c1` (stereo unspecified), which Potency is on record?
A: inconclusive: 11.7 µM [inhibitor, single point]

Q: Which Potency does the source give for `O=C(NCC(=O)N(c1cccnc1)C(C(=O)NC1CCCCC1)c1cccnc1)c1ccco1` (stereo unspecified) here?
A: inconclusive: 11.7 µM [inhibitor, single point]

Q: With `O=C(Nc1ccc2c(c1)OCO2)c1ccc2nc[nH]c2c1` as the compound, how does the Potency read?
A: inactive

Q: With `CCCN(CCC)S(=O)(=O)c1ccc(C(=O)Nc2nnc(-c3cccc(OC)c3)o2)cc1` as the compound, how does the Potency read?
A: inactive

Q: For `CC1(C)CC(=O)C2=C(C1)Nc1nc(SCCN3CCOCC3)[nH]c(=O)c1C2c1cccs1` (stereo unspecified), which Potency is on record?
A: inconclusive: 18.5 µM [inhibitor, single point]

Q: With `O=C(Cc1ccc(S(=O)(=O)N2CCCCC2)s1)Nc1ccc(F)cc1F` as the compound, how does the Potency read?
A: active: 13.1 µM

Q: For `CC1CC(C(F)F)n2nc(C(=O)Nc3sc4c(c3C#N)CCC(C(C)(C)C)C4)nc2N1` (stereo unspecified), which Potency is on record?
A: inconclusive: 10.4 µM [inhibitor, single point]

Q: Which Potency does the source give for `O=C(Nc1nnc(SCc2ccc(F)cc2)s1)c1ccccn1` here?
A: inconclusive: 0.738 µM [inhibitor, full curve, poor fit]

Q: With `Cc1csc(SCC(=O)Nc2cc(C(C)(C)C)nn2-c2ccccc2)n1` as the compound, how does the Potency read?
A: inconclusive: 11.7 µM [inhibitor, single point]

Q: With `CCC(=O)N1CCc2cc(OC)c(OC)cc2C1COc1ccc(C(=O)OC)cc1` (stereo unspecified) as the compound, how does the Potency read?
A: inconclusive: 18.5 µM [inhibitor, single point]

Q: Which Potency does the source give for `O=C(Nc1ccc(S(=O)(=O)NC2=NCCCCC2)cc1)C1COc2ccccc2O1` (stereo unspecified) here?
A: inconclusive: 11.7 µM [inhibitor, single point]

Q: For `CCCOc1ccc(C(=O)C(CN2CCCC2)c2ccccc2)cc1` (stereo unspecified), which Potency is on record?
A: inconclusive: 18.5 µM [inhibitor, single point]

Q: With `Cc1ccc(C(=O)NC2CCN(C(=O)Nc3ccccc3Cl)CC2)cc1` as the compound, how does the Potency read?
A: inactive

Q: For `Cc1ccc(NC(=O)CCNS(=O)(=O)c2ccc3c(c2)CCC(=O)N3)cc1C`, which Potency is on record?
A: inconclusive: 18.5 µM [inhibitor, single point]

Q: With `O=C(NC(=S)Nc1ccccc1)c1cc(-c2ccccc2)nc2ccccc12` as the compound, how does the Potency read?
A: active: 10.4 µM

Q: Which Potency does the source give for `COc1ccc2c3n(nc2c1)CCN=C3c1cc(Cl)c(N)c(Cl)c1` here?
A: inconclusive: 18.5 µM [inhibitor, single point]

Q: With `COCCCNC(=S)N/N=C/c1ccc(O)cc1O` as the compound, how does the Potency read?
A: inactive

Q: With `COc1ccc(/C=N/Nc2ccccc2)cc1Cn1nc(C)c([N+](=O)[O-])c1C` as the compound, how does the Potency read?
A: inconclusive: 4.15 µM [inhibitor, partial curve, poor fit]

Q: Which Potency does the source give for `Cc1cc(O)c(S(=O)(=O)c2ccccc2)c(C)c1NS(=O)(=O)c1ccccc1` here?
A: inactive

Q: Which Potency does the source give for `Cc1ccc(N2CC(C(=O)Nc3ccccc3C(=O)N3CCOCC3)CC2=O)cc1` (stereo unspecified) here?
A: inactive

Q: For `COc1ccc(OC)c(/C=N/NC(=O)CCc2ccc(O)c(O)c2)c1`, which Potency is on record?
A: inconclusive: 18.5 µM [inhibitor, single point]

Q: With `CCNC(=S)N1CCc2cc(OC)c(OC)cc2C1COc1ccc(OC)cc1` (stereo unspecified) as the compound, how does the Potency read?
A: inconclusive: 8.28 µM [inhibitor, partial curve, poor fit]

Q: Which activity change, negative = inhibition does the source give for `COc1cc(-c2nn3c(-c4ccccc4)nnc3s2)cc(OC)c1OC` here?
A: inactive: -14.8% [at 5.75 µM]

Q: For `CC(/C=C/C=C/c1ccccc1)=N/NC(=O)CNc1ccccc1C`, which Potency is on record?
A: inconclusive: 9.28 µM [inhibitor, single point]

Q: With `COc1ccc(-c2csc(N(Cc3ccco3)C(=O)c3cccs3)n2)cc1` as the compound, how does the Potency read?
A: active: 6.57 µM

Q: Which Potency does the source give for `O=C1C(C=NCc2ccccn2)=C(O)c2ccccc21` here?
A: inactive

Q: Which Potency does the source give for `CCOC(=O)N1CCN(S(=O)(=O)c2cc(-c3nn4c(C)nnc4c4ccccc34)ccc2C)CC1` here?
A: inconclusive: 13.1 µM [inhibitor, partial curve]

Q: With `CC1=C(C(=O)OCc2ccccc2)C(c2ccc(Cl)cc2)NC(=O)N1CCCCCC(=O)O` (stereo unspecified) as the compound, how does the Potency read?
A: active: 11.7 µM

Q: Which Potency does the source give for `COc1ccc(NC(=S)NC(=O)c2ccccc2Cl)cc1` here?
A: inconclusive: 18.5 µM [inhibitor, single point]

Q: With `C#CCNC(=O)C1=C[C@H](C2CCCCC2)C[C@H](OCc2ccc(CO)cc2)O1` as the compound, how does the Potency read?
A: inactive

Q: With `CCn1c(COc2ccccc2OC)nnc1SCC#N` as the compound, how does the Potency read?
A: inconclusive: 18.5 µM [inhibitor, partial curve, poor fit]

Q: For `CCOC(=O)C1(Cc2ccc(OC)cc2)CCN(C(=O)c2sc(C)nc2C)CC1`, which Potency is on record?
A: inactive

Q: Which Potency does the source give for `COc1ccccc1C(=O)Nc1cc(Cl)ccc1-n1cncn1` here?
A: inconclusive: 5.22 µM [inhibitor, single point]

Q: For `O=C1CC(N2CCN(c3ccc(O)cc3)CC2)C(=O)N1c1ccc2c(c1)OCO2` (stereo unspecified), which Potency is on record?
A: inactive

Q: Which Potency does the source give for `Cc1cc(C(=O)OCC(=O)c2ccc(Br)s2)c(C)o1` here?
A: inactive

Q: With `COc1ccccc1N1CCN(C(=O)C2CCN(S(=O)(=O)c3ccccc3F)CC2)CC1` as the compound, how does the Potency read?
A: inconclusive: 5.22 µM [inhibitor, partial curve, poor fit]

Q: For `Cc1csc(-c2coc3cc(O)cc(C)c3c2=O)n1`, which Potency is on record?
A: inactive

Q: Which Potency does the source give for `Cc1ccc(CN2CCNC(=O)C2CC(=O)NCCCn2ncc3ccccc32)o1` (stereo unspecified) here?
A: inconclusive: 2.94 µM [inhibitor, partial curve]

Q: Which Potency does the source give for `CCOc1ccc(NC(=O)N2CCCC2C(=O)NCC2CCCO2)cc1` (stereo unspecified) here?
A: inconclusive: 2.33 µM [inhibitor, single point]
